The values that follow come from publication PMC5850324, “Interactions between the Hepatitis C Virus Nonstructural 2 Protein and Host Adaptor Proteins 1 and 4 Orchestrate Virus Release” (mBio, 2018).

No constants are given. Whether binding was seen depends on the method and setting. Binding seen in cells or lysates may run through a third protein. For some assays here: Tags and fused reporters may be left off the sequences shown.

Assay [1] has as its target T1, GLuc1-tagged μ subunit of the AP-1A complex (UniProt Q9BXS5).
T1 sequence: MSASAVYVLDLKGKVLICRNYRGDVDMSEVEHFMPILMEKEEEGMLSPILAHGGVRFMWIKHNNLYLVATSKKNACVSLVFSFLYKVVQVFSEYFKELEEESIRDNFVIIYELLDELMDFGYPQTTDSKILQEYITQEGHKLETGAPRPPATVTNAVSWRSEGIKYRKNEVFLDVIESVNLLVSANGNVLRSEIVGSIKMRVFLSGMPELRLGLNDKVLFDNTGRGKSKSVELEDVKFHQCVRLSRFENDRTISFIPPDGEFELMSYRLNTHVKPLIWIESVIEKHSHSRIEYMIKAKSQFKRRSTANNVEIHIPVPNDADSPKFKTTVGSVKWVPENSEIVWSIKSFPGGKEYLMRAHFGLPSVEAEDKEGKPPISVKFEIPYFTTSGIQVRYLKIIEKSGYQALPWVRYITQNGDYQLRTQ
The assay is described as follows: split reporter; protein fragment complementation assay (split luciferase): GLuc1-AP μ subunit and GLuc2-HCV protein transfected pairwise into 293T cells; luciferase at 24 h; normalized luminescence ratio (NLR), positive if NLR >25 (>2.2 SD above a random reference set); mutant panels plotted relative to WT; NS2-AP-1B also tested after treatment with compound 7745, 12i, sunitinib or erlotinib.

Assay [2] has as its target T2, GLuc1-tagged μ subunit of the AP-1B complex (UniProt Q9Y6Q5).
T2 sequence: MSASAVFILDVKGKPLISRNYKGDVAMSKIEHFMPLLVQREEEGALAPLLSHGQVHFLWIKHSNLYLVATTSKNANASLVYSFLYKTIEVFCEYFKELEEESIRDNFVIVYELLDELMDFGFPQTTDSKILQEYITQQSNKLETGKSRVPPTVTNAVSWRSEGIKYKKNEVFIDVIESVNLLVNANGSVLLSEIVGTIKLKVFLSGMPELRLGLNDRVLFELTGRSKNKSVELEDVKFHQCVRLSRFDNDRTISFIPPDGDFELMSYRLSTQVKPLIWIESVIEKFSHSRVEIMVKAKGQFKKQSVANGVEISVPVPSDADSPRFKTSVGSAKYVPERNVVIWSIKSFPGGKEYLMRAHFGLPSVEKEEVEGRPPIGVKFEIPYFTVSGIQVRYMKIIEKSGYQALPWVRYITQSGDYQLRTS
The description is as above.

The target of assay [3] is T3, GLuc1-tagged μ subunit of the AP-4 complex (UniProt O00189).
T3 sequence: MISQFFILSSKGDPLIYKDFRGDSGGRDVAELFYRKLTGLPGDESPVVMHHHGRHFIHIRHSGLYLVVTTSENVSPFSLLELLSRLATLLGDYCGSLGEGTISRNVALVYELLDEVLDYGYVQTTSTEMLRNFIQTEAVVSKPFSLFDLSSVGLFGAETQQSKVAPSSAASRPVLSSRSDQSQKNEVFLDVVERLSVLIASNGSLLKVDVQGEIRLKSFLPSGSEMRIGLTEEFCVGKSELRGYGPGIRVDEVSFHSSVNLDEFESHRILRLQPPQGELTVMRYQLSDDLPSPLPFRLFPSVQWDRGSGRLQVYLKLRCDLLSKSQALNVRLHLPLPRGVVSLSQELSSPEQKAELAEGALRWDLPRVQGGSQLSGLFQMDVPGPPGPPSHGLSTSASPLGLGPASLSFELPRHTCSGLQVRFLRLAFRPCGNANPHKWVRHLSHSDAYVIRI
The description is as above.

Assay [4] concerns the target T4, AP-4 (μ subunit), endogenous in Huh7.5 cells (human (endogenous in Huh7.5)) (UniProt O00189).
T4 sequence: T3 sequence
The assay is described as follows: co-IP; membrane fractions of Huh7.5 cells transfected with J6/JFH HCV RNA (naive cells as control); cross-linker added; IP with anti-NS2, anti-AP-1A or anti-AP-4 antibodies, IgG controls.

Assay [5] concerns the target T5, AP-1A (μ subunit), endogenous in Huh7.5 cells (human (endogenous in Huh7.5)) (UniProt Q9BXS5).
T5 sequence: T1 sequence
The description is as above.

Consider “GLuc2-NS5B (hepatitis C virus nonstructural protein 5B)”, for which the binding entry in assay [1], in assay [2] and in assay [3] was “no binding” each time.

Take “NS5B expressed from J6/JFH HCV RNA (hepatitis C virus (J6/JFH))”: the binding entry in assay [4] and in assay [5] was “no binding” throughout.
